Test results from patent US20230265175A1.
These are yes or no findings as the source states them, for the method shown. Sequences can lack the tags named with a protein.

Experiments:
pSer412Cys (74AXY) [1] = molecular target: T1, pSer412Cys (74AXY); experiment: peptide-coated ELISA (peptide 74AXY, OD405)
T1 sequence (peptide, phosphoserine as printed, NV(pS)STGSC): NVSSTGSC

pSer412Cys (74AXY) [2] = molecular target: T1, pSer412Cys (74AXY); experiment: peptide-coated ELISA

binding (pSer412Cys (74AXY) [1]): no binding (tested: 10 µg/ml)
B1: V5-AFM-hIgG4-S228P (antibody, V domains shown)
VH: EVQLVESGGGLVQPGGSLRLSCAASGFTFSSFALNWVRQAPGKGLEWVGHIRSKTNNYVTFYAASVKGRFTVSRDDSQNTAYLQMNSLKTEDTATYYCVRRGPRDSWFGYWGQGTLVTVSS
VL: DIVMTQSPLSLPVTLGEPASISCRSSQKIVHRNANTYLEWYLQKPGQSPQLLIYTVSNRFSGVPDRFSGSGSGTDFTLKISRVEAEDLGVYYCFQGSYLPLTFGGGTKVEIKR
binding (pSer412Cys (74AXY) [2]): no binding (tested: 10 µg/ml top concentration)
